Data taken from the supplement of paper PMC12067093, “Discovery and optimisation of a covalent ligand for TRIM25 and its application to targeted protein ubiquitination” (Chemical Science, 2025).
Some of the results follow.

By UniProt entry, the sequences of proteins in these tests, tags left out. Where a name states a change or a piece, a line headed by the entry shows the natural chain unless it says otherwise.
UniProt Q5T8I3: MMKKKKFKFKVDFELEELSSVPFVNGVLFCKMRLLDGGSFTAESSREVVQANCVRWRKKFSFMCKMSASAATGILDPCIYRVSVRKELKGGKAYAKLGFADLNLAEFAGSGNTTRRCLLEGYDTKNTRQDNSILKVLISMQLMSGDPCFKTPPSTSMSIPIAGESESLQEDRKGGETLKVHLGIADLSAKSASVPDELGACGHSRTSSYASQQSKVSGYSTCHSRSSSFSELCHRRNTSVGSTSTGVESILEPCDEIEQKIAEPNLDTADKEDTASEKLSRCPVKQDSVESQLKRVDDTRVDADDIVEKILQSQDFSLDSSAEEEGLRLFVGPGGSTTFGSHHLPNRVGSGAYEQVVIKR
UniProt Q96EK7: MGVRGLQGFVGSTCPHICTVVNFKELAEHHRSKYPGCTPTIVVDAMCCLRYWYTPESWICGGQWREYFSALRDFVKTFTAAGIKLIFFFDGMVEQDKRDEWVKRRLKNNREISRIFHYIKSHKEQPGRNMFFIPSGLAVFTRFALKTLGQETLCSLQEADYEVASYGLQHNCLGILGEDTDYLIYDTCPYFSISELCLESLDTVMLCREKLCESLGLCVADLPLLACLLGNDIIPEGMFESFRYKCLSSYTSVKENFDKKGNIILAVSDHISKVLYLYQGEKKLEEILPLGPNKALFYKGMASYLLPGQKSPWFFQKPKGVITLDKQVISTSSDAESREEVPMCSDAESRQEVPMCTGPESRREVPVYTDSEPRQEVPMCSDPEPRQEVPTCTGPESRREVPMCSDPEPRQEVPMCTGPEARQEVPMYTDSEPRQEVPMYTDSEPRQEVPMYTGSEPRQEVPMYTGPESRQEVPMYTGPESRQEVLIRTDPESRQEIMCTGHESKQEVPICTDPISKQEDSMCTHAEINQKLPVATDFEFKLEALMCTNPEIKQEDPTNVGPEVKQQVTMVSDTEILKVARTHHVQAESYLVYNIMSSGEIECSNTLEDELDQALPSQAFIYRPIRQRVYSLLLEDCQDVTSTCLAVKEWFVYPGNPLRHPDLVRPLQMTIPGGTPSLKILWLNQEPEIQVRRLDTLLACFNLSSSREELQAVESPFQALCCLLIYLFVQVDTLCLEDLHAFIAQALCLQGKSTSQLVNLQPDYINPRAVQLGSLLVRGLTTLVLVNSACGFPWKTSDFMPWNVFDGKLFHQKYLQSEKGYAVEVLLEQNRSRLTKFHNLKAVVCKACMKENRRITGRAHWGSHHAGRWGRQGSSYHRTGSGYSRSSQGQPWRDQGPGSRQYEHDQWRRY
UniProt Q9Y282: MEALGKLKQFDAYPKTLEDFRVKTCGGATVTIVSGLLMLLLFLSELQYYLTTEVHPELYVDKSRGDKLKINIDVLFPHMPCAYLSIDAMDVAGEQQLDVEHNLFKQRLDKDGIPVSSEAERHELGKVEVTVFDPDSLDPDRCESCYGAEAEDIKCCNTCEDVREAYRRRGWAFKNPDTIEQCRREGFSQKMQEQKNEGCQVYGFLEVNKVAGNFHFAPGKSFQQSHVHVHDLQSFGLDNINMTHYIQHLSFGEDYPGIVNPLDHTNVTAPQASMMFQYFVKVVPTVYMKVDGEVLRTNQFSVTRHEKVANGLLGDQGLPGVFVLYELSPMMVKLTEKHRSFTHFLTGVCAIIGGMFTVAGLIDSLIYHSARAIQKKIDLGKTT
UniProt Q01469, whole entry, looked up: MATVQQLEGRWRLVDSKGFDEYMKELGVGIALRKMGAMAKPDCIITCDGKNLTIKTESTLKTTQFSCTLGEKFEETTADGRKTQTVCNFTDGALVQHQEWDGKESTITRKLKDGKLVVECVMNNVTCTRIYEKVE
UniProt Q9NZB2: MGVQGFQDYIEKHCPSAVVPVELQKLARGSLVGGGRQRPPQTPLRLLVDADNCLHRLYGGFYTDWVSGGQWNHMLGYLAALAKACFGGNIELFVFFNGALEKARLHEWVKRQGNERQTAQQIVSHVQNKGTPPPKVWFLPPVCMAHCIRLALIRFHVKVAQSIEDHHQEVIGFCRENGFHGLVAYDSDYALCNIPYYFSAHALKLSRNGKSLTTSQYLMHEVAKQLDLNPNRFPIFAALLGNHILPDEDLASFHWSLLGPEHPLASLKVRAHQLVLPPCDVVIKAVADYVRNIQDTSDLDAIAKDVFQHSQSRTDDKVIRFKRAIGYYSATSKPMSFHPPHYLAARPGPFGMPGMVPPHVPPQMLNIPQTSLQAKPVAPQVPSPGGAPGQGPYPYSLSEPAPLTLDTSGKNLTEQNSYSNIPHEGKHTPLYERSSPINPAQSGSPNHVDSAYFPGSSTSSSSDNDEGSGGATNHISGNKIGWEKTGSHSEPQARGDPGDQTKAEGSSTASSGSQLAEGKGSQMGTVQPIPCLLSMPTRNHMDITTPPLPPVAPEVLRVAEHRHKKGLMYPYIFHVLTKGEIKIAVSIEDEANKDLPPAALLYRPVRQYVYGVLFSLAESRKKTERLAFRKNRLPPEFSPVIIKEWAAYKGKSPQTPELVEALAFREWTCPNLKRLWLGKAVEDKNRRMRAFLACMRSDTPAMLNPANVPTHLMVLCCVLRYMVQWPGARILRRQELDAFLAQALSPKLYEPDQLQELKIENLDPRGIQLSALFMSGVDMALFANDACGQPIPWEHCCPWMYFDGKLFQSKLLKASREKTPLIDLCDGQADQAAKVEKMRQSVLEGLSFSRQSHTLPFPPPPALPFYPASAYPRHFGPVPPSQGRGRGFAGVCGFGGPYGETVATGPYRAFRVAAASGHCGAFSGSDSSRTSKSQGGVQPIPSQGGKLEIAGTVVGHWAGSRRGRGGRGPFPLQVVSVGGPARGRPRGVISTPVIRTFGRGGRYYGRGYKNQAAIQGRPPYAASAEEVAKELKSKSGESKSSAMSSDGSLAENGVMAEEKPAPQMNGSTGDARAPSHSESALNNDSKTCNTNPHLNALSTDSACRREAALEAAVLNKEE
UniProt P28715: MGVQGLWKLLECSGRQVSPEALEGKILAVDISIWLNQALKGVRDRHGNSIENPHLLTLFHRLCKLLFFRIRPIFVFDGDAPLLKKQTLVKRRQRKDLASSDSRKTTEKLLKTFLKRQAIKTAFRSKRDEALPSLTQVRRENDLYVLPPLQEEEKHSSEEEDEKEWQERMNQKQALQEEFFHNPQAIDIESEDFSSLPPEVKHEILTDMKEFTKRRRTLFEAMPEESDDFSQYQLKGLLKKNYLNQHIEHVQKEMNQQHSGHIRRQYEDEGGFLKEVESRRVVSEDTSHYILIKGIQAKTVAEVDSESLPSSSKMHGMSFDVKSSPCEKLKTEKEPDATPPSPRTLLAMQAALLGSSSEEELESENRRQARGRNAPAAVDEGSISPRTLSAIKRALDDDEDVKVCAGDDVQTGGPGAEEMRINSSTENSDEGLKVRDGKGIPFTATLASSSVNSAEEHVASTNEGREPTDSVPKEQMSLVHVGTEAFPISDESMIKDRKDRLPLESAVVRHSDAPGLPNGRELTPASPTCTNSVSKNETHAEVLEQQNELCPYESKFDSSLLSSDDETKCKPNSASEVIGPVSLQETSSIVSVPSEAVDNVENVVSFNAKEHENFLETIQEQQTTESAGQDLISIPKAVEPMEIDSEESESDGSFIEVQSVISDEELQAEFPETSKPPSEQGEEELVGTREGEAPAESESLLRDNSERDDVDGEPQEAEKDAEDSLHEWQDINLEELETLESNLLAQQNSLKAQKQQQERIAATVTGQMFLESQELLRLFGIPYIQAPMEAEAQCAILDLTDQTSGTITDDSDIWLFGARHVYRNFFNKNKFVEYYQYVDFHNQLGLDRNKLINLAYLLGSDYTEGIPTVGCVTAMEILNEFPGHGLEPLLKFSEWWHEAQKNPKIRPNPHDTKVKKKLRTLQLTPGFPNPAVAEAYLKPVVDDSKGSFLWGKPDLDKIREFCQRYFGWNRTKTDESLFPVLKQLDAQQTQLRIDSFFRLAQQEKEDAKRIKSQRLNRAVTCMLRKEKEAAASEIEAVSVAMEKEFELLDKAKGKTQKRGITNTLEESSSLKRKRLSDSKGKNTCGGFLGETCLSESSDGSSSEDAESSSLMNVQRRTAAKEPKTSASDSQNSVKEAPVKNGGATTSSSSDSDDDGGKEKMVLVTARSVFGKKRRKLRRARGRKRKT
UniProt Q9BPY3: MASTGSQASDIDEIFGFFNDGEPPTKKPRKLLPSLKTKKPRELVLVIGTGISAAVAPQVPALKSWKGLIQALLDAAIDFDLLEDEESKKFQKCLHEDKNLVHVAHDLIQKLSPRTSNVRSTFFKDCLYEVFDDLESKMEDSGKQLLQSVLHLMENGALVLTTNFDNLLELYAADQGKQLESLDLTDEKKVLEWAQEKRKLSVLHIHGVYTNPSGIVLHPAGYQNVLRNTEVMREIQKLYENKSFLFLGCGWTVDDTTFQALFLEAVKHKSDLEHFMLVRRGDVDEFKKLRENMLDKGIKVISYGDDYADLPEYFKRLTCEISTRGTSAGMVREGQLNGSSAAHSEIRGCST
UniProt Q9UNN5: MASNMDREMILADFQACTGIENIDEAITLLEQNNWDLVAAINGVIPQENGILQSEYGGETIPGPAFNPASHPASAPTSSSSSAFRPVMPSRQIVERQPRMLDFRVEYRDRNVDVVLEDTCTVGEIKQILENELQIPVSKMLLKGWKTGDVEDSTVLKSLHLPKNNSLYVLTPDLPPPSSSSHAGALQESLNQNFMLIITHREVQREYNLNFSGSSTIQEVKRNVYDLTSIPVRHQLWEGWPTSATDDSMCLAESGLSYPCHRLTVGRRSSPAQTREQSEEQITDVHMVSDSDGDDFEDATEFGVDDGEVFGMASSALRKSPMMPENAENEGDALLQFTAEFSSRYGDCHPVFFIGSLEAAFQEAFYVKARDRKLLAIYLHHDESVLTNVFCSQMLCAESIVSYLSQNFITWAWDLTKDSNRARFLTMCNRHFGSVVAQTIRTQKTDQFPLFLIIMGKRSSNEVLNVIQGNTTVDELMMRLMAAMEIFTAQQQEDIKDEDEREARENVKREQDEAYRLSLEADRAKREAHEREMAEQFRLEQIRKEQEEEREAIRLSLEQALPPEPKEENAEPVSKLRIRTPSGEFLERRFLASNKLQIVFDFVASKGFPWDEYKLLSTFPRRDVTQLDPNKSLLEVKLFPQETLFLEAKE
UniProt Q9NWS6: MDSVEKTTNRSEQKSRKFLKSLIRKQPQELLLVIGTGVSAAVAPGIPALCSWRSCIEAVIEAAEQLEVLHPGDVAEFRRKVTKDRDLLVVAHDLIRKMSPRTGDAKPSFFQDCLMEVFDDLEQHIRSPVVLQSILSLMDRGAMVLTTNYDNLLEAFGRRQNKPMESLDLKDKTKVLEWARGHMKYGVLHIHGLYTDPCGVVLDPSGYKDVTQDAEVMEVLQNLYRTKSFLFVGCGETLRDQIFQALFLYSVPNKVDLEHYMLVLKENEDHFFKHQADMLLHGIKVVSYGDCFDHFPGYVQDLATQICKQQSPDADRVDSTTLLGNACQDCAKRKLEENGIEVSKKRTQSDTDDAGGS
UniProt Q96HE7: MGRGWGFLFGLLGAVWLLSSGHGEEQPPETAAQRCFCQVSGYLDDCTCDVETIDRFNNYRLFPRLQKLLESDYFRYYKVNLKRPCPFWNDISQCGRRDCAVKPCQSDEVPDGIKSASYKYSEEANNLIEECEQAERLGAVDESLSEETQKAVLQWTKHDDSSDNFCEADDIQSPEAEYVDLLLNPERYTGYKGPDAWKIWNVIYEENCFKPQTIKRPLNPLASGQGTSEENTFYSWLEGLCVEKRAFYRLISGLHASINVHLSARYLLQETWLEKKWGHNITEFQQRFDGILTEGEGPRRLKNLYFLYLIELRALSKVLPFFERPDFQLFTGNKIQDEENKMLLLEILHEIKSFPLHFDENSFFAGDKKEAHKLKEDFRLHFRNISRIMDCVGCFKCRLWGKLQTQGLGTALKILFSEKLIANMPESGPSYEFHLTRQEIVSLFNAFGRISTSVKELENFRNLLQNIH
UniProt P10768: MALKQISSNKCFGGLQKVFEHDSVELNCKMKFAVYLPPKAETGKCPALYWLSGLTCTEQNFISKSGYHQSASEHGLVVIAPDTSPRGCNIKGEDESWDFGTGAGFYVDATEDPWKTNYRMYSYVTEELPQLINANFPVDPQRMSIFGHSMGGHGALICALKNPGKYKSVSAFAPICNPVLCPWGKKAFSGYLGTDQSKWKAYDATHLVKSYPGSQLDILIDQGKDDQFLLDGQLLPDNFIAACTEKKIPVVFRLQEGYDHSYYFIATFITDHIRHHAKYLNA
UniProt Q9NYK6: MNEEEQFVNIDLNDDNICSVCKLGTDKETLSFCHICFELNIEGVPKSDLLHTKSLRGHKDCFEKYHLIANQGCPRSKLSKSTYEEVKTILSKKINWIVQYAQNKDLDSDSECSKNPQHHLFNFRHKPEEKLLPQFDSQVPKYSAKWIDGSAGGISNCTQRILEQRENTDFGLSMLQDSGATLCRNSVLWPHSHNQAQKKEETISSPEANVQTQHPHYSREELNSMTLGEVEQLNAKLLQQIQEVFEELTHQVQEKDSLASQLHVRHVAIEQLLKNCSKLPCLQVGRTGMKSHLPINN

Compound: Cc1cc(ccc1-c1ccccc1)C(=O)N1CCCN(CC1)C(=O)CCl [compound 10]
Experiment: probe-labelled cysteine peptide fold change vs DMSO (competition) (log2 fold change); higher = less target engagement (more negative = stronger competition)
Conditions: THP-1, incubation time: 4 h
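Also: competitive profiling in live THP-1 cells: cysteine peptides tagged with an iodoacetamide desthiobiotin (IA-DTB) probe, intensity after compound treatment relative to DMSO-treated cells.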

Row | Target | probe-labelled cysteine peptide fold change (10 µM) | probe-labelled cysteine peptide fold change (50 µM)
1 | FAM102B_Q5T8I3_64_FSFMCK (UniProt Q5T8I3) | 0.0594 | 0.126
2 | EXOSC2_Q13868_191_THFHDLPCGASVILGNNGFIWIYPTPEHKEEEAGGFIANLEPVSLADR (UniProt Q13868) | 0.188 | 0.0801
3 | EXOC1_Q9NV70_304+314_GIEACTNAADALLQCMNVALRPGHDLLLAVK (UniProt Q9NV70) | 0.159 | 0.0647
4 | EXOC4_Q96A65_786_VHCFHYLIPLAK (UniProt Q96A65) | 0.0844 | 0.695
5 | FAM120B_Q96EK7_499_QEIMCTGHESK (UniProt Q96EK7) | -0.283 | -0.296
6 | ERGIC3_Q9Y282_159_CCNTCEDVR (UniProt Q9Y282) | -0.433 | -0.098
7 | FABP5_Q01469_67_TTQFSCTLGEKFEETTADGR (UniProt Q01469) | 0.0444 | -0.639
8 | FAM120A_Q9NZB2_174_VAQSIEDHHQEVIGFCR (UniProt Q9NZB2) | -0.0204 | 0.504
9 | FAM120B_Q96EK7_344_QVISTSSDAESREEVPMCSDAESR (UniProt Q96EK7) | -0.278 | -0.331
10 | FAF2_Q96CS3_211_MLFWACSTNKPEGYR (UniProt Q96CS3) | -0.0536 | -0.0175
11 | ETNK1_Q9HBU6_307+313_EILSNLGSPVVLCHNDLLCK (UniProt Q9HBU6) | -0.0872 | -0.271
12 | ERCC6L_Q2NKX8_411_LCDHPR (UniProt Q2NKX8) | 0.205 | 0.587
13 | ERGIC3_Q9Y282_155_CCNTCEDVR (UniProt Q9Y282) | 0.0999 | 0.0761
14 | ERCC5_P28715_550_NETHAEVLEQQNELCPYESK (UniProt P28715) | -0.452 | -0.364
15 | FAM118B_Q9BPY3_126_DCLYEVFDDLESK (UniProt Q9BPY3) | -0.243 | 0.086
16 | ETV6_P41212_157_ILFSPFFHPGNSIHTQPEVILHQNHEEDNCVQR (UniProt P41212) | 0.249 | -0.091
17 | FAF1_Q9UNN5_250+260_HQLWEGWPTSATDDSMCLAESGLSYPCHR (UniProt Q9UNN5) | -0.38 | -0.42
18 | FAM118A_Q9NWS6_113_TGDAKPSFFQDCLMEVFDDLEQHIR (UniProt Q9NWS6) | 0.174 | -0.519
19 | ETF1_P62495_127_KVNIDFEPFKPINTSLYLCDNK (UniProt P62495) | 0.155 | -0.0188
20 | EXOSC8_Q96B26_233+234_LCCLHKPGGSGLTGAK (UniProt Q96B26) | 0.0841 | -0.438
21 | ESCO1_Q5FWF5_376_CILNGINSSAK (UniProt Q5FWF5) | -0.0702 | -0.352

Records 8 to 9 of the list above:
Row | Target | probe-labelled cysteine peptide fold change (10 µM) | probe-labelled cysteine peptide fold change (50 µM)
8 | FAM120A_Q9NZB2_174_VAQSIEDHHQEVIGFCR (UniProt Q9NZB2) | -0.0204 | 0.504
9 | FAM120B_Q96EK7_344_QVISTSSDAESREEVPMCSDAESR (UniProt Q96EK7) | -0.278 | -0.331

Continuation:

Row | Target | probe-labelled cysteine peptide fold change (10 µM) | probe-labelled cysteine peptide fold change (50 µM)
22 | FAM120B_Q96EK7_392_QEVPTCTGPESR (UniProt Q96EK7) | -0.46 | -0.0617
23 | ERO1A_Q96HE7_85_RPCPFWNDISQCGR (UniProt Q96HE7) | -0.0936 | 0.243
24 | ESD_P10768_56_CPALYWLSGLTCTEQNFISK (UniProt P10768) | 0.193 | 0.105
25 | FAM129A_Q9BZQ8_194_RFSALLSDCVR (UniProt Q9BZQ8) | -0.127 | 0.0111
26 | EZR_P15311_284_ILQLCMGNHELYMRR (UniProt P15311) | 0.0402 | 0.318
27 | EURL_Q9NYK6_112_DLDSDSECSK (UniProt Q9NYK6) | -0.23 | -0.887
28 | FAHD1_Q6P587_129_SFTASCPVSAFVPK (UniProt Q6P587) | 0.108 | 0.12
29 | ERO1A_Q96HE7_94_RPCPFWNDISQCGR (UniProt Q96HE7) | 0.0634 | 0.456
30 | EXOC3_O60645_161_LMDLECSR (UniProt O60645) | -0.281 | -0.764
31 | FAM120A_Q9NZB2_531_GSQMGTVQPIPCLLSMPTR (UniProt Q9NZB2) | -0.418 | -0.472
32 | ERO1A_Q96HE7_104_DCAVKPCQSDEVPDGIK (UniProt Q96HE7) | -0.198 | 0.0779
33 | FAM118A_Q9NWS6_55_SCIEAVIEAAEQLEVLHPGDVAEFR (UniProt Q9NWS6) | -0.0349 | 0.184
34 | ESD_P10768_176+181_SVSAFAPICNPVLCPWGK (UniProt P10768) | -0.00346 | -0.142
35 | EXOC7_Q9UPT5_667_GFNDGLEELCK (UniProt Q9UPT5) | -0.0815 | 0.085
36 | ETFA_P13804_68_VAQDLCK (UniProt P13804) | 0.00557 | -0.0991
37 | EXOC1_Q9NV70_650_CISNQIR (UniProt Q9NV70) | -0.0212 | -0.257
38 | EXOSC6_Q5RKV6_117_RAPPGGCEERELALALQEALEPAVR (UniProt Q5RKV6) | -0.569 | -1.04
39 | EXOC5_O00471_111_VCHLGDQLEGVNTPR (UniProt O00471) | -0.0886 | -0.158
40 | FAM120A_Q9NZB2_669_SPQTPELVEALAFREWTCPNLK (UniProt Q9NZB2) | -0.244 | -0.568
41 | EVI5L_Q96CN4_342_VIPHQFDSCPDK (UniProt Q96CN4) | -0.213 | -0.55
42 | FAM102B_Q5T8I3_53_EVVQANCVR (UniProt Q5T8I3) | -0.0937 | 0.333
